Experimental data taken from PubChem BioAssay AID2549 (National Center for Advancing Translational Sciences (NCATS), 2010).
The whole screen tested about 240,000 compounds, of which about 1,300 (0.54%) were called active. Inconclusive results, whose numbers are uncertain, are shown with a selection of clear calls. Calls follow the shape of the dose curve; as a rule, active = well fitted inhibition curve with a large enough effect; inconclusive = small, poorly fitted or top-dose-only effect; inactive = flat fitted curve, though single readings scatter. A potency beside an inconclusive call is a rough fit, not a confirmed value.
Also: nearly all actives have a fitted effect of over 30% in size.
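For activity, negative = inhibition in this document: plate controls were vehicle for no effect and no enzyme for full effect.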
Potency is read from the fitted curve at half-maximal effect.

By UniProt entry, the sequences of proteins in these tests, tags left out. Where a name states a change or a piece, a line headed by the entry shows the natural chain unless it says otherwise.
UniProt P46063: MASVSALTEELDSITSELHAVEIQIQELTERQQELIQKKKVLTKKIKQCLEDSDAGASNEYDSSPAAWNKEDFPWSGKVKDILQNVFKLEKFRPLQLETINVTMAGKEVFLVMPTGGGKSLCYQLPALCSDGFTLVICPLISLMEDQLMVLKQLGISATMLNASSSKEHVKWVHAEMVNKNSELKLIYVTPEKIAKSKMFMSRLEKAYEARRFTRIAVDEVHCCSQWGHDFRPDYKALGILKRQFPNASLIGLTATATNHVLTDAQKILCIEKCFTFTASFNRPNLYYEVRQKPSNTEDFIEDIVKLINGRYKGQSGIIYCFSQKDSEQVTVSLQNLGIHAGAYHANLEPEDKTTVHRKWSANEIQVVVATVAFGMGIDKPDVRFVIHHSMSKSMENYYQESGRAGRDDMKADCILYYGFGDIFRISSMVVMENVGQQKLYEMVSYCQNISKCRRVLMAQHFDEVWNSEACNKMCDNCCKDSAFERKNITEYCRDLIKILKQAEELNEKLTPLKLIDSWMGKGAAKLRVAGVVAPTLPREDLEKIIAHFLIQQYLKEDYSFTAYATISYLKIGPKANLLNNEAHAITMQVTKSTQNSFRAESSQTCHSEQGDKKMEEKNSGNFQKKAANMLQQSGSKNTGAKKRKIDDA

Each compound was assayed against ATP-dependent DNA helicase Q1 (Homo sapiens) (UniProt P46063) (assay: qHTS Assay for Inhibitors of RecQ-Like Dna Helicase 1 (RECQ1)). Conditions: RECQ1 DNA unwinding, red fluorescence kinetic read; activity, negative = inhibition: at 57.3 µM (top of the series); series mostly up to 57.3 µM.
How it was run: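 50 nM RECQ1T1 preincubated 15 min with compound in Tris pH 8.0 buffer with MgCl2, DTT, Tween-20 and 2.5 ug/ml poly(dI-dC); started with 200 nM TAMRA/BHQ-2 forked duplex and 2 mM ATP. Unwinding read as fluorescence (525/598 nm), two reads 2 h apart.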
With `Cc1ccccc1-c1ccc(C(=O)Nc2cccc(F)c2)o1` the Potency was inconclusive: 31.6 µM [inhibitor, single point].
In the case of `S=c1[nH]nc(Nc2cccc3ccccc23)s1`, the “activity, negative = inhibition” value is reported as inactive: -5.01%.
With `O=C1NC(=S)S/C1=C\c1coc2ccccc2c1=O` the Potency was active: 20 µM.
In the case of `COc1ccc(C(CC(=O)N2CCN(c3ccccc3)CC2)c2c(O)cc(OC)cc2OC)cc1` (stereo unspecified), the Potency is reported as inconclusive: 6.31 µM [inhibitor, single point].
`Nc1nc2ccccc2[nH]1` was tested, and the “activity, negative = inhibition” value was inactive: 9.63%.
In the case of `Cn1c(NC(=O)c2ccccc2C(F)(F)F)cc(=O)n(C)c1=O`, the Potency is reported as inconclusive: 0.199 µM [inhibitor, full curve].
In the case of `CCCCC/C=C\C/C=C\C/C=C\C=C\C1CCCC(=O)O1` (stereo unspecified), the “activity, negative = inhibition” value is reported as inactive: 3.74%.
For `Cc1csc(NC(=O)c2cc(-c3ccncc3)nc3ccccc23)n1`, the Potency was inconclusive: 0.562 µM [inhibitor, full curve].
In the case of `Nc1cc(=O)[nH]c(SCC(=O)Nc2nnc(-c3ccccc3)s2)n1`, the Potency is reported as inconclusive: 31.6 µM [inhibitor, partial curve].
With `O=[N+]([O-])c1ccc(N=Nc2c(Cl)cc(O)cc2Cl)cc1` the Potency was inconclusive: 31.6 µM [inhibitor, single point].
`CC(C)Cn1c(N)c(C(=O)NCc2cccs2)c2nc3ccccc3nc21` was tested, and the Potency was inconclusive: 39.8 µM [inhibitor, single point].
With `CCOCCCn1c(=S)[nH]c2cc(C(=O)NCCCN(CC)CC)ccc2c1=O` the Potency was inconclusive: 7.94 µM [inhibitor, partial curve].
In the case of `Oc1ccccc1N1CCN(c2nc(-c3cccs3)nc3ccccc23)CC1`, the “activity, negative = inhibition” value is reported as inactive: -16.3%.
`O=C1C(Nc2ccccc2)=C/C(=N/S(=O)(=O)c2cccs2)c2ccccc21` was tested, and the “activity, negative = inhibition” value was inactive: -10.1%.
`COc1ccc(Cl)cc1-c1n[nH]c(=S)n1C1CCCCC1` was tested, and the “activity, negative = inhibition” value was inactive: -17.4%.
In the case of `CC(C)Cn1c(-c2cccs2)nc2nc3ccccc3nc21`, the “activity, negative = inhibition” value is reported as inactive: 11.5%.
For `Cc1cc(C(=O)N/N=C/c2ccc(Cl)c([N+](=O)[O-])c2)c(C)n1-c1ccc(F)cc1`, the “activity, negative = inhibition” value was inactive: -2.12%.
For `O=C1S/C(=C\C=C\c2ccco2)C(=O)N1c1ccccc1`, the Potency was inconclusive: 28.2 µM [inhibitor, single point].
With `CC(=O)Oc1ccc(C(=O)[C@H]2[C@H]3C(=O)N(c4ccc5ccccc5c4)C(=O)[C@H]3[C@@H]3C=CC=NN32)cc1` the Potency was active: 31.6 µM.
For `COC(=O)Oc1ccc(/C=C/C(=O)OC(C)C)cc1OC(=O)OC`, the Potency was inconclusive: 10 µM [inhibitor, partial curve].
`O=[N+]([O-])c1ccc(C=Nc2ccc(Cl)c([N+](=O)[O-])c2)s1` was tested, and the Potency was inconclusive: 35.5 µM [inhibitor, single point].
